Earlier results, collected in patent US6703045B2, “Composition and method for maintaining blood glucose level” (Council of Scientific & Industrial Research, priority 2001, dated 2004).

Columns and labels:
[1] = single oral 5 mg dose
[2] = fluconazole 100 mg daily oral for 7 days, normal volunteers
[3] = patients

plasma concentration after 24 hr [1]: 12.0 ng/mL
time to peak plasma conc. [1]: 1 to 3 h
mean percentage increase in glipizide AUC after fluconazole [2]: 56.9%
SMILES: Cc1cnc(C(=O)NCCc2ccc(S(=O)(=O)NC(=O)NC3CCCCC3)cc2)cn1 [Glipizide, 1-cyclohexyl-3-[[p-[2-(5-methylpyrazinecarboxamido)ethyl]phenyl]sulfonyl] urea]
incidence of allergic skin reactions [3]: about one in seventy
